Test results as given in paper PMC11825094, “Tonic ubiquitination of the central body weight regulator melanocortin receptor 4 (MC4R) promotes its constitutive exit from cilia” (PLOS Biology, 2025).
These are yes or no findings as the source states them, for the method shown. In cells and extracts the contact can be indirect. Some entries that bind do so weakly or less than the wild type. Sequences can lack the tags named with a protein.

Protein sequences, listed by entry. Tags and fused reporters are not part of them.
UniProt P32245: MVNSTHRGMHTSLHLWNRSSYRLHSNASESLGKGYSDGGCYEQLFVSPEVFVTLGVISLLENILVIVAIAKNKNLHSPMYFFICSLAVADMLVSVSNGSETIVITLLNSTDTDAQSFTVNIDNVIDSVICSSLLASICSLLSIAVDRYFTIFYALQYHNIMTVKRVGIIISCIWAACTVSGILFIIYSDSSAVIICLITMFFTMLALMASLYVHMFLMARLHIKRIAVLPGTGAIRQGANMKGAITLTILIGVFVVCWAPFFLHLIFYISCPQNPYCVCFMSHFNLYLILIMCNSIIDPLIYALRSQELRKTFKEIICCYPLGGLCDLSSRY

Target: T1, melanocortin receptor accessory protein 2 (MRAP2)-3xFLAG, murine (mouse) (UniProt D3Z1Q2)
T1 sequence: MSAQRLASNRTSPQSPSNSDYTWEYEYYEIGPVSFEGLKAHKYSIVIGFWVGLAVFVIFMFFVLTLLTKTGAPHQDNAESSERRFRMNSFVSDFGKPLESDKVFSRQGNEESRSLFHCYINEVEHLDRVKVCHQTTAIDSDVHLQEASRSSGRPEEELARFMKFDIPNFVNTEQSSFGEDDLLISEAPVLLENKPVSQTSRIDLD
Assay: co-IP; anti-FLAG M2 affinity gel captures mMRAP2^3FLAG from clarified lysate of serum-starved IMCD3-[mMRAP2^3FLAG-T2A-hMC4R^3NG] cells (50 mM HEPES pH 7.5, 250 mM NaCl, 2 mM EDTA, 10% glycerol, 0.25% n-dodecyl β-D-maltoside), 2 h at 4°C; eluted with 3xFLAG peptide; blot with anti-NeonGreen and anti-FLAG; FlpIn parental cells as control

binding: binds
Substance: melanocortin receptor 4 (MC4R)-3xmNeonGreen, human (from UniProt P32245 1-332)
